According to patent US20250332290A1, “PSMA-TARGETING LIGANDS FOR MULTIMODAL APPLICATIONS” (STICHTING RADBOUD UNIVERSITAIR MEDISCH CENTRUM, priority 2021, published 2025):
At least one compound was matched to its structure with a doubt left.

Protein sequences, listed by entry. Tags and fused reporters are not part of them.
UniProt Q04609, whole entry: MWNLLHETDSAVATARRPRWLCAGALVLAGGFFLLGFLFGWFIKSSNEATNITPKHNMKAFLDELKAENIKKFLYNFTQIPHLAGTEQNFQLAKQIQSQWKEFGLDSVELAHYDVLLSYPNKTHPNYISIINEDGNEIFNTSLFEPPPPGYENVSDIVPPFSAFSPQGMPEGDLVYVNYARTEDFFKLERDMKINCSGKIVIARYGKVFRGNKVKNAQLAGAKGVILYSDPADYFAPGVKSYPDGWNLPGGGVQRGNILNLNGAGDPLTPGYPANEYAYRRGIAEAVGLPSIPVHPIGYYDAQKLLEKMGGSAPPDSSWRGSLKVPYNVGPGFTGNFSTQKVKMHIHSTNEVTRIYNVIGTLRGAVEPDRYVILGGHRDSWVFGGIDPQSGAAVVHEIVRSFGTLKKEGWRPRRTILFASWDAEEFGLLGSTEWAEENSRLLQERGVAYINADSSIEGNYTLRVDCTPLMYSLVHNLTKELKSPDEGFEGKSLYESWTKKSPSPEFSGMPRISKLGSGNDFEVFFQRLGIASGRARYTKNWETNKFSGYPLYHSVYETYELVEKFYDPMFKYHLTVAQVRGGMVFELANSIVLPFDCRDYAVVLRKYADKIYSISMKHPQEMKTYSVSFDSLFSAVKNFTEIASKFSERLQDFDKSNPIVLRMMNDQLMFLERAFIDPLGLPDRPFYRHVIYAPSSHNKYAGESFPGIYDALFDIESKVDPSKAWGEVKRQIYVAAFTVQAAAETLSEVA

Target: T1, PSMA (LS174T-PSMA cells) (Homo sapiens, UniProt Q04609)
T1 construct: expressed in transfected cells
Assay: Cell binding assay of 111In-labelled ligands with different chelators on PSMA-expressing LS174T-PSMA cells
Assay type: cell-based
Conditions: 111In-labelled ligand, 2 h at 37° C.

Compound | γ-emission counts remaining after incubation and washing of the cells (binding and/or internalization) [%]
NC(=O)CN1CCN(CC(N)=O)CCN(CC(=O)NCCCC[C@H](NC(=O)[C@H](CCC(=O)O)NC(=O)c2cccnc2)C(=O)NCc2ccc(C(=O)N[C@@H](Cc3ccc4ccccc4c3)C(=O)NCCCC[C@H](NC(=O)N[C@@H](CCC(=O)O)C(=O)O)C(=O)O)cc2)CCN(CC(N)=O)CC1 [Compound K3] | 20.9±0.4
O=C(O)CC[C@H](NC(=O)N[C@@H](CCCCNC(=O)[C@H](Cc1ccc2ccccc2c1)NC(=O)c1ccc(CNC(=O)[C@H](CCCCNC(=O)CN2CCN(CC(=O)O)CCN(CC(=O)O)CCN(CC(=O)O)CC2)NC(=O)[C@H](CCC(=O)O)NC(=O)c2cccnc2)cc1)C(=O)O)C(=O)O [Compound K4] | 27.5±1.0
